Values of other authors in patent publication US20210393720A1, “Hair Growth Compositions” (priority 2020, published 2021).
For at least one compound, name, drawing or mass did not settle the structure.

System: men with androgenic alopecia
Details: after three to six months of continuous therapy

Nc1cc(N2CCCCC2)nc(N)[n+]1[O-] [Minoxidil]
proportion of men in whom effective (hair regrowth): about 40%
